Consider five substances from patent US20230242581 (published 2023).

The data set in a line: general procedure: hybrid (solid and solution phase) peptide synthesis; 2-CTC resin; HBTU/Cl-HOBt/DIPEA or EDC HCl/HOAt (fragment couplings).
Setting [1] is: oxidative folding step, HPLC, LCMS for protected fragments.

Where no end group is shown, it is not given here. [ ]: non-standard residue; d: D form. The star is where a group is joined. Asn(Trt) = N[C@@H](CC(=O)NC(c1ccccc1)(c1ccccc1)c1ccccc1)C(=O)O; Trt = c1ccc(C(c2ccccc2)(c2ccccc2)*)cc1; Fmoc = O=C(OCC1c2ccccc2-c2ccccc21)*; OtBu = CC(C)(C)O*; Acm = CC(=O)NC*; tBu = CC(C)(C)* Bounds are passed on as bounds.

“Fmoc-Ala-Cys(Trt)-Thr(tBu)-Gly-Cys(Acm)-Leu(OtBu)”: for the setting “coupling step, HPLC, LCMS for protected fragments”, the “crude LC-MS purity” value was greater than 99%. Also, the step yield (coupling step, run 1) was found to be 62% and the step yield (coupling step, run 2) was found to be 93.24%.
The substance [Asn(Trt)]VAC(Trt)T(tBu)GC(Acm)L-OtBu showed a step yield (late stage modification step) of 87.10%.
As for “Fmoc-[Asn(Trt)]VAC(Trt)T(tBu)GC(Acm)L-OtBu”, for the setting “coupling step”, the step yield worked out at 94.00%.
Consider Plecanatide, for which the step yield (late stage modification step) was found to be 97.3%. Besides, the oxidative folding yield (oxidative folding step) was determined as 48.91%. In addition, under setting [1], the “final HPLC purity” value is greater than 98% and the “final purity (method not given)” value is greater than 98%. For the setting “whole synthesis, HPLC, LCMS for protected fragments, scale of the general procedure 100 g resin”, the “final purity (method not given)” value was “about 98%-98.5%”. Moreover, for the setting “whole synthesis, overall, scale of the general procedure 100 g resin”, the isolated yield result is “about 60-70%”.
“Ala-Cys(Trt)-Thr(tBu)-Gly-Cys(Acm)-Leu(OtBu)”: under “late stage modification step, HPLC, LCMS for protected fragments”, the “crude LC-MS purity” value was greater than 90%. Moreover, the step yield (late stage modification step, run 1) was found to be 82% and the step yield (late stage modification step, run 2) is 85.88%.
